A value given as a limit tells only on which side of the number the result lay.

Here are results for two compounds from PMC7449455 (PLoS Neglected Tropical Diseases, 2020).

A short description of data set [1]: Cytotoxicity in HepG2 cells (CellTiter-Glo). In kind it is cell-based. The settings on record: human, HepG2 cell line, ATP quantification. The procedure: (§1) To determine compound toxicity we used the HepG2 cell line (human hepatocellular carcinoma, ATCC HB-8065) as a widely used cell-based assay. The cells were maintained in MEM (Gibco) supplemented with 5% heat-inactivated FBS, 1 mM Sodium pyruvate (Gibco) and 1X MEM amino acids solution (Sigma). Briefly, cells were added to white-bottomed 96-well plates containing 100 μL of serial 2-fold dilutions of the H1RAs. After 24 hours of culture at 37 °C, the percentage of viable cells was determined by ATP quantification using the CellTiter-Glo luminescent Cell Viability Assay (Promega) according to the manufacturer’s instructions. […] At least three different assays were carried out to determine the IVTI of each compound, which was calculated as the ratio between the CC50 obtained in the HepG2 cell line and the EC50 determined in the L. major EVC [21]. To evaluate the cytotoxicity of AZ and FX in peritoneal macrophages, adherent cells obtained from peritoneal lavage of naïve mice (10,000/well) were exposed during 24 hours at 37°C to serial drug concentrations (0.09 μM—200 μM). Cell viability was determined by CellTiter-Glo (Promega).
For orientation: Cellular ATP, detected with luciferase, serves as a proxy for viable cell number.

The nature of data set [2]: Cytotoxicity in naive mouse peritoneal macrophages (CellTiter-Glo). In kind it is cell-based. The settings on record: read-out: CC50 (toxicity in peritoneal macrophages). As for the experimental part: as §1

The CC50 is the concentration giving 50% cytotoxicity. As for `CN(C)CCOC(c1ccccc1)c1ccccc1` [Diphenhydramine], it took 375 ± 17.8 µM to reach half-maximal cytotoxicity in data set [1] (CC50 at 24 h).

Regarding `CC(C)(C(=O)O)c1ccc(C(O)CCCN2CCC(C(O)(c3ccccc3)c3ccccc3)CC2)cc1` (stereo not drawn) [Fexofenadine], the figures for the CC50 at 24 h in data set [1] and in data set [2] were 822 ± 87.2 µM and at least 100 µM, respectively.
